No constants are given. Whether binding was seen depends on the method and setting. Binding seen in cells or lysates may run through a third protein. Some binding calls cover weakened binding; strength is not graded here.
Key:
[1] = target: OsImpα1a-FLAG (rice (Oryza sativa)) (UniProt Q71VM4); assay: co-IP
[2] = target: OsImpα1b-FLAG (rice (Oryza sativa)) (UniProt Q9SLX0); assay: co-IP
[3] = target: OsImpα1b-cLUC (rice (Oryza sativa)) (UniProt Q9SLX0); assay: split reporter
[4] = target: OsImpα1a-cLUC (rice (Oryza sativa)) (UniProt Q71VM4); assay: split reporter

The chains behind the UniProt entries cited, without tags or fusion partners.
UniProt Q71VM4: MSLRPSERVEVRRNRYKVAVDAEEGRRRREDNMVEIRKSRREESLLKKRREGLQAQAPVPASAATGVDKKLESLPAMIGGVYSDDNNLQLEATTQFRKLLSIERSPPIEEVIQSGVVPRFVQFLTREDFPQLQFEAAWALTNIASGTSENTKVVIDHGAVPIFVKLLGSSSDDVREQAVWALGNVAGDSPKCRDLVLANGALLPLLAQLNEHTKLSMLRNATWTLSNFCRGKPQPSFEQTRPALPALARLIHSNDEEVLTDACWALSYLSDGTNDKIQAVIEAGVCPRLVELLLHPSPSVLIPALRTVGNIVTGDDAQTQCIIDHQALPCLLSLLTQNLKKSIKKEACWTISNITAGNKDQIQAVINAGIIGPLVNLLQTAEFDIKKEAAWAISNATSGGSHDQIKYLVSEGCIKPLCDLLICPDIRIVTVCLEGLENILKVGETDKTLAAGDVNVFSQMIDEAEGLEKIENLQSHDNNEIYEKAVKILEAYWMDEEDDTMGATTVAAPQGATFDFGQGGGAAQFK
UniProt Q9SLX0: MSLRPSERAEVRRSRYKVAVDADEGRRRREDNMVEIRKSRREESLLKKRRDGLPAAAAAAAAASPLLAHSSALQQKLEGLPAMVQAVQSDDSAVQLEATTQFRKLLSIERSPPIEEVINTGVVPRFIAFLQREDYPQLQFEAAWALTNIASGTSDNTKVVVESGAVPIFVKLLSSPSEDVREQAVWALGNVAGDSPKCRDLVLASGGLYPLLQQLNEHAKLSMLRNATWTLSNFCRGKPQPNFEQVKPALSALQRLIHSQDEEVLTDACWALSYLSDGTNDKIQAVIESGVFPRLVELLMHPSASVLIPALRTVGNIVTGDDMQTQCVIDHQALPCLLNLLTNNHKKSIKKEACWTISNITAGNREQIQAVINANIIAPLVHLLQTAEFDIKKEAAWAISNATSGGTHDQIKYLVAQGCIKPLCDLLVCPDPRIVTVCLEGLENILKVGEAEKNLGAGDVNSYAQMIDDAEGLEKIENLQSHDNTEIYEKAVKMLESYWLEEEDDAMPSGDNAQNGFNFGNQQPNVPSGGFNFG

| Substance | binding [1] | binding [2] | binding [3] | binding [4] |
| --- | --- | --- | --- | --- |
| pthXo1-myc (from UniProt B2SU53 1-1373) | binds | binds | – | – |
| pthXo1-nLUC (from UniProt B2SU53 1-1373) | – | – | binds | binds |

From publication PMC6637887
